Experimental data reported in patent publication US20260144882A1, “ANTI-NECTIN-4 ANTIBODY DRUG CONJUGATE AND USE THEREOF” (Bio-Thera Solutions, Ltd., priority 2022, published 2026).
These are yes or no findings as the source states them, for the method shown. Some entries that bind do so weakly or less than the wild type.

The chains behind the UniProt entries cited, without tags or fusion partners. Residues count along the entry.
UniProt Q8R007, residues 31-347: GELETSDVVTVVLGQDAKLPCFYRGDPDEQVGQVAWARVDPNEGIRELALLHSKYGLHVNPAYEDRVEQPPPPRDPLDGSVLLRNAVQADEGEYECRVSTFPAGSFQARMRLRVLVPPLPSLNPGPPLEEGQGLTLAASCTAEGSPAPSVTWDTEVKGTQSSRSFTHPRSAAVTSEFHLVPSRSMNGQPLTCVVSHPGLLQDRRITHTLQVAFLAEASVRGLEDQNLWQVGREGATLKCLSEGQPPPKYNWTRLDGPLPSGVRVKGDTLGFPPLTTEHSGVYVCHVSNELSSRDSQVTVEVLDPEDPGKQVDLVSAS

Biological target: mouse mNectin-4 protein (ACRO, NE4-M52H3) (mouse) (UniProt Q8R007)
Assay: ELISA, coated antigen

- binding: binds
B1: reference antibody ASG-22 (antibody, human IgG1, kappa, V domains shown)
VH: EVQLVESGGGLVQPGGSLRLSCAASGFTFSSYNMNWVRQAPGKGLEWVSYISSSSSTIYYADSVKGRFTISRDNAKNSLSLQMNSLRDEDTAVYYCARAYYYGMDVWGQGTLVTVSS
VL: DIQMTQSPSSVSASVGDRVTITCRASQGISGWLAWYQQKPGKAPKFLIYAASTLQSGVPSRFSGSGSGTDFTLTISSLQPEDFATYYCQQANSFPPTFGGGTKVEIKR
